# According to patent publication US20040219097A1, “Composition useful for the diagnosis, imaging and treatment of tumors” (priority 2003, published 2004):
# System: JJ5 Breast Cancer cells
# Experiment: Binding of EGF-^111In-labeled transferrin compound to breast cancer cells (radioligand binding, kinetics, retention)
# Set-up: species or system human
# Details: over a 24 hour period at 37° C.
# Description: For the normal breast cell line HBL-100, 8000 EGFR/cell has been reported. The expression of EGFR in breast cancer cell lines has a reported range of 800 EGFR/cell for MCF-7 cells to 10^6 EGFR/cell for MDA-MB-468 cells. […] Utilizing the Auger electron emitter ^111In was used in the initial experiments to illustrate the utility of the invention using EGF-^111In-labeled transferrin compounds. The EGF-^111In-labeled transferrin (0.25-80 ng) was incubated with 1.5×10^6 cells/dish JJ5 Breast Cancer (prepared from BCBM JJ5) cells in 1 mL of 0.1% human serum albumin in 35 mm multiwell culture dishes at 37° C. for 30 minutes. The cells were transferred to a centrifuge tube and centrifuged. The cell pellet was separated from the supernatant and counted in a g-scintillation counter to determine bound (B) and free (F) radioactivity. Non-specific binding was determined by conducting the assay in 100 nM hEGF. […] Internalized fraction was measured by determining the proportion of radioactivity which could not be displaced from the cell surface by 100 nM hEGF. Cell-associated binding (surface-binding and intracellular accumulation) was expressed as a percentage of medium radioactivity bound per mg of cell study protein.
substance,measurement,value
EGF-^111In-labeled transferrin compound: human EGF linked to ^111In-labeled human transferrin,^111In radioactivity lost from the cells in vitro,< 8%
